Earlier results as cited in US7820199B2, “Stable extended release oral dosage composition” (Schering Corporation, priority 1999, dated 2010).

Key:
[1] = over 3,200 patients, 4 double-blind randomized trials, adult and adolescent patients
[2] = mice, comparison of ED50 value
cells of human origin = conditions: in vitro, mainly cells of human origin; independent of H1-antagonist effect

Structure (SMILES): Clc1ccc2c(c1)CCc1cccnc1C2=C1CCNCC1 [desloratadine]
- clinical efficacy in seasonal rhinitis [1]: demonstrated the efficacy
- alterations in behavior, neurologic or autonomic function [2]: relatively free of producing alterations in behavior
- inhibition of events in the cascade of allergic inflammation (cells of human origin): can inhibit many events in the cascade of allergic inflammation
